Measured values from article PMC4747989 (Cancer Nanotechnology, 2016).

Test: peptide made by a vendor
Settings: whole synthesis

## FITC-tagged Pep-A
  final HPLC purity: ~95%
